Reference: the supplement of paper PMC6411743
± gives the standard deviation of the averaged measurements. The list shows a part of the results.

Protein sequences, listed by entry. Tags and fused reporters are not part of them. Lines headed by an entry give the natural chain unless they say otherwise; changes in a name come on top.
UniProt Q5TEU4: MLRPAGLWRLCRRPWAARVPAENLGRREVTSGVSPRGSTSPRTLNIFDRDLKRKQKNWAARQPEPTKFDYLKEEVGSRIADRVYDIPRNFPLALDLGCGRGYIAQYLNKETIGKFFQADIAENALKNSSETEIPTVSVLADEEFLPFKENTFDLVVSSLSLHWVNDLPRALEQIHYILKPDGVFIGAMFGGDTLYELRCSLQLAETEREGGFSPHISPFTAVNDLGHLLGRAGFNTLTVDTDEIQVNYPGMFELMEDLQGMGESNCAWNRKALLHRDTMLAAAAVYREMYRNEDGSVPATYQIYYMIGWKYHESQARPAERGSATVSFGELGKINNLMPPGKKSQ
UniProt Q8IVH2: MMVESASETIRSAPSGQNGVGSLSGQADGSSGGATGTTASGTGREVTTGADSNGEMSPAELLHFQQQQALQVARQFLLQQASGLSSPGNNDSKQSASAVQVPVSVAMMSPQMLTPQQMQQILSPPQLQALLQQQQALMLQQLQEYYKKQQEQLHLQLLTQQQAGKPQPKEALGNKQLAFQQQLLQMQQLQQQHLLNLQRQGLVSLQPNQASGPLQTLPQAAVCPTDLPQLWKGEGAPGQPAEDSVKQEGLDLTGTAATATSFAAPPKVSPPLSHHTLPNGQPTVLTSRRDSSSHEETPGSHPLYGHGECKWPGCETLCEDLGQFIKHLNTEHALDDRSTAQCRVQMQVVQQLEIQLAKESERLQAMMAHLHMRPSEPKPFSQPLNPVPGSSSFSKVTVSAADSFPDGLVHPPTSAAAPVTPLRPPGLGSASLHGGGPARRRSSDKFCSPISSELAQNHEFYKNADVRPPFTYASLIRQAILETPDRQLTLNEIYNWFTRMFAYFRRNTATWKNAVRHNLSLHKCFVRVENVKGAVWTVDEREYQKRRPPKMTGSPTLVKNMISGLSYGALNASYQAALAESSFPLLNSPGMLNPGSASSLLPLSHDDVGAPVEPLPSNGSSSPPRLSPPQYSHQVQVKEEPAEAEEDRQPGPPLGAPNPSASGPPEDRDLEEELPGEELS
UniProt Q9GZV4: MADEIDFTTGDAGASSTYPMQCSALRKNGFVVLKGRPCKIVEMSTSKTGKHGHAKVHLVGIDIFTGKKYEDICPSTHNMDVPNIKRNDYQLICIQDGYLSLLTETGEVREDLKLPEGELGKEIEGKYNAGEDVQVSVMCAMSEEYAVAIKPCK
UniProt Q8TCN5: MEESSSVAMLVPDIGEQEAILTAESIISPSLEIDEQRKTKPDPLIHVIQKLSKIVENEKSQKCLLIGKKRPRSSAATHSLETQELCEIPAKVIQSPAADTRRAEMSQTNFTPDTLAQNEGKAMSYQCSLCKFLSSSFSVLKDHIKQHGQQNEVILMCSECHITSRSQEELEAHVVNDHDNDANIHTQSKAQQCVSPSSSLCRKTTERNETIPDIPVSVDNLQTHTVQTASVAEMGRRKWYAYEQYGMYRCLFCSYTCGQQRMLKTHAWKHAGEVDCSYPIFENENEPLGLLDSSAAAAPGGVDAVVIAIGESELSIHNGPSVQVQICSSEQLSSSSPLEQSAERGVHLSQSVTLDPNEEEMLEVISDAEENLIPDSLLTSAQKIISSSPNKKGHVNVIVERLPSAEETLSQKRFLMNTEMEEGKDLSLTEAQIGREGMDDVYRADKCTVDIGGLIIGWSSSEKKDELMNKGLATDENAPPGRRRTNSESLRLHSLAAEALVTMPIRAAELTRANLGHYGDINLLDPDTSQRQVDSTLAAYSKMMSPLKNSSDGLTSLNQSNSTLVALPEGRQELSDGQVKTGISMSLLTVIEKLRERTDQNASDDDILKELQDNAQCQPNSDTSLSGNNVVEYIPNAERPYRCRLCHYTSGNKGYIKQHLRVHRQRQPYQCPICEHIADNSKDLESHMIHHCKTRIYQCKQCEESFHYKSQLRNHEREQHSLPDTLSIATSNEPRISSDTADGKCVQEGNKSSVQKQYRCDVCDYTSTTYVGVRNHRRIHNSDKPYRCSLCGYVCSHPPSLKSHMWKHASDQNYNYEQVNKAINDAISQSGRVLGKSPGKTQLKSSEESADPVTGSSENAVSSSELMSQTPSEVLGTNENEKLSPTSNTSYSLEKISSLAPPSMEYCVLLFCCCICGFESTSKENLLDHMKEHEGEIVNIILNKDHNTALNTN
UniProt Q9BVC5: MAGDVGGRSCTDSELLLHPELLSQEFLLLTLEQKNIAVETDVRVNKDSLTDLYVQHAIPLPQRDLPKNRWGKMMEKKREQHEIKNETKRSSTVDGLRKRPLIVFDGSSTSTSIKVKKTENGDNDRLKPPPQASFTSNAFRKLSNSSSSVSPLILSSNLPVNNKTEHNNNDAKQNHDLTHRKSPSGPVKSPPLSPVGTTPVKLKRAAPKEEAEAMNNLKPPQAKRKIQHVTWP
UniProt O15162: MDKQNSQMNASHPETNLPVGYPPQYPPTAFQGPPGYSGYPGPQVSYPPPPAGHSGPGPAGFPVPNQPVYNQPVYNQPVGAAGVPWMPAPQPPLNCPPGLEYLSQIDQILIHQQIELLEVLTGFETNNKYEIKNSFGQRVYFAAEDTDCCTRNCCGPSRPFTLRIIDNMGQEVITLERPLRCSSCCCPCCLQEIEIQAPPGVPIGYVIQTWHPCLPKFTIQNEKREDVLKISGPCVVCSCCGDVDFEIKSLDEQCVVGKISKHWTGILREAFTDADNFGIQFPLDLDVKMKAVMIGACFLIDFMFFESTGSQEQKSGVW
UniProt Q9Y4P1: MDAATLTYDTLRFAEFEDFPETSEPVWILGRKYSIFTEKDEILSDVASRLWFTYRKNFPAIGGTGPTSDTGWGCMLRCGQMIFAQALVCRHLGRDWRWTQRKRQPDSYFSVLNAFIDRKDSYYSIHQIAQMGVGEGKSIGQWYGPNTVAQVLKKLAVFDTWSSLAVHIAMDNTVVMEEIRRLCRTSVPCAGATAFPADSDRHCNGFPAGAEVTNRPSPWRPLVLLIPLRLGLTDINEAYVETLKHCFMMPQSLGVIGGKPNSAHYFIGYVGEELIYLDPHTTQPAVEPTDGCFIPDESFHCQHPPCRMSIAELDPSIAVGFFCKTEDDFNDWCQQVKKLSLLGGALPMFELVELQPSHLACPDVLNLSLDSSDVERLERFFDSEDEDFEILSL
UniProt P49116: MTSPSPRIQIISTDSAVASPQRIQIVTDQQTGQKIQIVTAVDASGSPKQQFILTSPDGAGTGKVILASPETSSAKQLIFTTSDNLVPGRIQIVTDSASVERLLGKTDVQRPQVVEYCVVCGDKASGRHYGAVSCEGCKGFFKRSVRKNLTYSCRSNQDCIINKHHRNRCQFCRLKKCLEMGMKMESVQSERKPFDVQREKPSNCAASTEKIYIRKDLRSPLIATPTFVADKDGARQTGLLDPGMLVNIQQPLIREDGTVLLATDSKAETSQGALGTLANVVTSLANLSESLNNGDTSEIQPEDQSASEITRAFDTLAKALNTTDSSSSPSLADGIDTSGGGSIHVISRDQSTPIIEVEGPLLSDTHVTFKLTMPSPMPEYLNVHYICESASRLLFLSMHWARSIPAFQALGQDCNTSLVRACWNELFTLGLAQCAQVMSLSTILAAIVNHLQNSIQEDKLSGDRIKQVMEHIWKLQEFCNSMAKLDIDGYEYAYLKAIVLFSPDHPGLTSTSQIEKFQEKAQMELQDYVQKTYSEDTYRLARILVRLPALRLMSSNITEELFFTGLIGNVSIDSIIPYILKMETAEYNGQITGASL
UniProt P15336: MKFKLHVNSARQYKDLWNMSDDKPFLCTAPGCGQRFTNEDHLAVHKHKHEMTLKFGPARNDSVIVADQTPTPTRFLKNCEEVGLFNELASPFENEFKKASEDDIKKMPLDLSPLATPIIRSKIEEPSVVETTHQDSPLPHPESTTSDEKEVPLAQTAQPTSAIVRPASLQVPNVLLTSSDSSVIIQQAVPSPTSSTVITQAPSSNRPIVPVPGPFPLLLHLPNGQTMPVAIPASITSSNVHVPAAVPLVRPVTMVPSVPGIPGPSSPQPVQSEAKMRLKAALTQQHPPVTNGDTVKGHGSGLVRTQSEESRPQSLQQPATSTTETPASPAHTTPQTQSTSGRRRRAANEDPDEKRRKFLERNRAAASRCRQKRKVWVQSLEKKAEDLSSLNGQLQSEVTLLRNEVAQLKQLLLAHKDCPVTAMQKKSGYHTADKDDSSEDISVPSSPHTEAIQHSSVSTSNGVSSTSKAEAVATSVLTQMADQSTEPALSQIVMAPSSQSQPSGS
UniProt Q6UXN9, whole entry: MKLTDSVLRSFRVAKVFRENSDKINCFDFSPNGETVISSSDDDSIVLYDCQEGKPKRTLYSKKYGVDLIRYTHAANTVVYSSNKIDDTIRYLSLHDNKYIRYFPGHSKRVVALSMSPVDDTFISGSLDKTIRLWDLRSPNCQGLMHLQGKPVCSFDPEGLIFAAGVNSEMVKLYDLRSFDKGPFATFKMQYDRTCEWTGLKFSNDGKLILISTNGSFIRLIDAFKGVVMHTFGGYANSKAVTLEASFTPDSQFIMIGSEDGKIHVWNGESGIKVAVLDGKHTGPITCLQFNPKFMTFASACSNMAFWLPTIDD
UniProt Q9UH03, whole entry: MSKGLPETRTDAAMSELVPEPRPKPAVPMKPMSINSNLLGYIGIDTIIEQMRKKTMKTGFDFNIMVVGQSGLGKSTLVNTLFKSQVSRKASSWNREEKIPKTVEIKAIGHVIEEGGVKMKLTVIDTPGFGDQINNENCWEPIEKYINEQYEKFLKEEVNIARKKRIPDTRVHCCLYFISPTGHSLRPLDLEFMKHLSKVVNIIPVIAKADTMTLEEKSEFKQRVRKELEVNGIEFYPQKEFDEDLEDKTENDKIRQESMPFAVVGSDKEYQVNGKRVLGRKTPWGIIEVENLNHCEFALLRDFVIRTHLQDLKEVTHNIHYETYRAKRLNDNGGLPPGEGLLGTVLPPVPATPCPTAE
UniProt P06748, whole entry: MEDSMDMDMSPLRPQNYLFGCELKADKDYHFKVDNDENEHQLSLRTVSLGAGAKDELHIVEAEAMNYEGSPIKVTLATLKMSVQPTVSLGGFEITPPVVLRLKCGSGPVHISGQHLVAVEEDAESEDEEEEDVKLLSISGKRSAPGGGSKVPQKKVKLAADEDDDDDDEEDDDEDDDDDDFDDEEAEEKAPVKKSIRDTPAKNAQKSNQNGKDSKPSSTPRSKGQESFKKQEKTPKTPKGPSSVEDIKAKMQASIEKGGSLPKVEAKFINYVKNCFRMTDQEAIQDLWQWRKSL
UniProt Q9Y262, whole entry: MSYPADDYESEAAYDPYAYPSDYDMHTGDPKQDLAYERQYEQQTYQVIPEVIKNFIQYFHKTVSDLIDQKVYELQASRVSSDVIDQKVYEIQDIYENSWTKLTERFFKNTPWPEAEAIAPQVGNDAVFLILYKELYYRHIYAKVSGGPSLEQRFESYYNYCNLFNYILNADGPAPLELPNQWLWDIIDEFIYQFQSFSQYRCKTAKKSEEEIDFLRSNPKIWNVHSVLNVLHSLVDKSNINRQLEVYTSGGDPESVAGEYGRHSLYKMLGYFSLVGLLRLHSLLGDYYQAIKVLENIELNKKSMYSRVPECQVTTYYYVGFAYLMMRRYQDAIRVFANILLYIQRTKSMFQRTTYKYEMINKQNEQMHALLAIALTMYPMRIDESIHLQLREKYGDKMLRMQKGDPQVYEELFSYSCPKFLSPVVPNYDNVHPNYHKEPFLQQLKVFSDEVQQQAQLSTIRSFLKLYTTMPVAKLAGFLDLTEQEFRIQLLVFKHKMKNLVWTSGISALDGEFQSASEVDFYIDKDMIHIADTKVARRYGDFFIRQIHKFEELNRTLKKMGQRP
UniProt A6NIH7: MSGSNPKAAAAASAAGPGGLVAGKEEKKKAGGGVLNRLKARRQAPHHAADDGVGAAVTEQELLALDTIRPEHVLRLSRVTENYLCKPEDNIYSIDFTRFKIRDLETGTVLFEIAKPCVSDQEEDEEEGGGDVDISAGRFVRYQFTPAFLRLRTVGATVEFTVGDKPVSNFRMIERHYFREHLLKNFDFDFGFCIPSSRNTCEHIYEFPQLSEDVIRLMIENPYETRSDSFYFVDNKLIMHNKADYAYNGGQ
UniProt Q9UPW0: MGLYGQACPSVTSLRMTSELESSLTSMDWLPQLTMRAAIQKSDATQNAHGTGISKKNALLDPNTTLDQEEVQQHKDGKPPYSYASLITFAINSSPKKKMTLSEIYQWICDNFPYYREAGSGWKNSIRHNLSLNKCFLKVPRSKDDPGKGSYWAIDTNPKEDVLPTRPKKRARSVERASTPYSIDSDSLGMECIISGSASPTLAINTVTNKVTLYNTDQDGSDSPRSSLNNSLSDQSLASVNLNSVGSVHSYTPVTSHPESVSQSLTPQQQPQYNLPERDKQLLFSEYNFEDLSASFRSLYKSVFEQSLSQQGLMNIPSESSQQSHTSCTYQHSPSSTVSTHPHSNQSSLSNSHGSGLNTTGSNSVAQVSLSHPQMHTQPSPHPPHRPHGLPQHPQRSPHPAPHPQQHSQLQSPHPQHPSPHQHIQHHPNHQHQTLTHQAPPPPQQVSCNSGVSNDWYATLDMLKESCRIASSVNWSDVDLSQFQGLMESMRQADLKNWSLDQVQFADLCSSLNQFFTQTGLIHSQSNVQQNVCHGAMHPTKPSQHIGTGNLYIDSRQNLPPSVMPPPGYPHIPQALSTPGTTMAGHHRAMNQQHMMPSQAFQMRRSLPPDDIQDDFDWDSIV

Compound: Nc1nc2c(ncn2[C@@H]2O[C@H](COP(=O)(O)OP(=O)(O)OP(=O)(O)O)[C@@H](O)[C@H]2O)c(=O)[nH]1 [guanosine triphosphate]
Test: NP40-soluble protein abundance relative to vehicle (solubility fold change) (ratio); higher = more soluble protein in presence of GTP
Method in brief: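 Each value is a fold change relative to the detergent-processed vehicle, calculated per replicate from vsn-normalised intensities. Jurkat crude lysate received eight concentrations (0.1 to 10 mM) for 10 min at room temperature and 3 min at 37 °C, then was solubilised in 0.8% NP40 with benzonase (60 min, 4 °C). The ultracentrifuged supernatant was TMT-labelled and run by LC-MS/MS in three independent experiments.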

Target	NP40-soluble protein abundance (concentration: 0.1mM)	NP40-soluble protein abundance (concentration: 0.5mM)	NP40-soluble protein abundance (concentration: 1mM)	NP40-soluble protein abundance (concentration: 2mM)	NP40-soluble protein abundance (concentration: 4mM)	NP40-soluble protein abundance (concentration: 6mM)	NP40-soluble protein abundance (concentration: 8mM)	NP40-soluble protein abundance (concentration: 10mM)
B3KR61 and related entries (UniProt Q5TEU4)	0.868 ± 0.081	0.957 ± 0.18	0.919 ± 0.052	0.896 ± 0.14	0.9 ± 0.094	0.877 ± 0.12	0.869 ± 0.062	0.837 ± 0.14
C9JCC6 and related entries (UniProt Q14919)	0.808 ± 0.16	0.704 ± 0.098	1.03 ± 0.18	0.98 ± 0.089	0.929 ± 0.1	0.915 ± 0.12	0.817 ± 0.18	1.06 ± 0.26
B7ZBM3 and related entries (UniProt Q8IVH2)	0.848 ± 0.1	0.821 ± 0.035	0.984 ± 0.18	1.01 ± 0.21	0.941 ± 0.21	1.03 ± 0.17	0.926 ± 0.1	1.09 ± 0.12
C9J6N9 and related entries (UniProt Q92890)	1.04 ± 0.041	1.03 ± 0.035	0.98 ± 0.01	0.937 ± 0.03	0.947 ± 0.022	0.934 ± 0.034	0.948 ± 0.017	0.896 ± 0.036
C9J4W5 and related entries (UniProt Q9GZV4)	1.03 ± 0.21	0.864 ± 0.12	0.954 ± 0.14	0.922 ± 0.18	0.875 ± 0.21	0.853 ± 0.17	0.868 ± 0.081	0.885 ± 0.12
D3YTB1 and related entries (UniProt P62910)	1 ± 0.12	0.991 ± 0.075	1.11 ± 0.16	1.05 ± 0.18	0.949 ± 0.3	0.88 ± 0.2	0.633 ± 0.19	0.915 ± 0.25
B9EGE7 and related entries (UniProt Q8TCN5)	0.964 ± 0.013	0.98 ± 0.032	1.03 ± 0.015	1.03 ± 0.023	1.03 ± 0.02	1.01 ± 0.028	1 ± 0.034	1.01 ± 0.053
B4E0T2 and related entries (UniProt P50542)	0.987 ± 0.045	0.955 ± 0.065	1.01 ± 0.077	0.987 ± 0.083	0.949 ± 0.056	0.978 ± 0.054	0.976 ± 0.034	0.913 ± 0.012
C9J4K0 and related entries (UniProt Q9BVC5)	0.976 ± 0.098	0.926 ± 0.081	1.01 ± 0.1	1 ± 0.08	1.09 ± 0.097	1.04 ± 0.072	1.12 ± 0.086	1.08 ± 0.044
C9J7K9 and related entries (UniProt O15162)	1.04 ± 0.056	0.996 ± 0.018	0.913 ± 0.029	0.879 ± 0.035	0.895 ± 0.083	0.923 ± 0.094	0.8475 ± 0.0078	0.867 ± 0.18
C9JIK8 and related entries (UniProt Q9Y4P1)	1.11 ± 0.14	1.12 ± 0.15	1.01 ± 0.081	1.05 ± 0.21	1.06 ± 0.18	0.991 ± 0.12	0.907 ± 0.12	0.89 ± 0.13
B8ZZU8 and related entries (UniProt Q15370)	0.892 ± 0.023	0.888 ± 0.029	0.954 ± 0.028	0.915 ± 0.06	0.921 ± 0.075	0.92 ± 0.042	0.878 ± 0.09	0.916 ± 0.037
C9J2Y1 and related entries (UniProt P49116)	1.01 ± 0.05	1.01 ± 0.036	0.976 ± 0.047	1.01 ± 0.06	0.973 ± 0.047	0.936 ± 0.026	0.966 ± 0.048	0.951 ± 0.035
B5MDE0 and related entries (UniProt Q96AA3)	1.1 ± 0.038	1.03 ± 0.062	0.969 ± 0.032	0.949 ± 0.071	0.944 ± 0.046	0.907 ± 0.065	0.879 ± 0.025	0.853 ± 0.054
MYO1G (UniProt B0I1T2)	1.12 ± 0.027	1.47 ± 0.26	1.95 ± 0.34	2.5 ± 0.51	2.75 ± 0.45	2.67 ± 0.49	2.58 ± 0.3	2.35 ± 0.31
B1AQP1 and related entries (UniProt P22415)	0.951 ± 0.037	0.924 ± 0.066	0.977 ± 0.075	0.947 ± 0.12	0.933 ± 0.12	0.934 ± 0.099	0.993 ± 0.084	0.995 ± 0.067
B8ZZU6 and related entries (UniProt P15336)	0.868 ± 0.086	0.907 ± 0.044	0.969 ± 0.14	0.943 ± 0.078	0.899 ± 0.011	0.899 ± 0.045	0.906 ± 0.1	0.955 ± 0.078
C9JBU3 and related entries (UniProt Q6UXN9)	1.08 ± 0.088	1.09 ± 0.13	0.934 ± 0.067	1 ± 0.19	0.968 ± 0.13	0.952 ± 0.099	0.887 ± 0.0099	0.883 ± 0.1
C9J8Q9 and related entries (UniProt P62256)	0.909 ± 0.052	0.911 ± 0.096	0.937 ± 0.055	0.884 ± 0.061	0.862 ± 0.11	0.885 ± 0.087	0.901 ± 0.083	0.854 ± 0.069
B1AHR1 and related entries (UniProt Q9UH03)	1.04 ± 0.061	1.061 ± 0.002	1.03 ± 0.053	1.02 ± 0.08	1.11 ± 0.16	1.06 ± 0.16	1.09 ± 0.17	1.03 ± 0.18
E5RGW4 and related entries (UniProt P06748)	0.926 ± 0.018	0.926 ± 0.061	1.08 ± 0.02	1.02 ± 0.079	1.08 ± 0.047	1.13 ± 0.062	1.17 ± 0.072	1.22 ± 0.13
B0QY89 and related entries (UniProt Q9Y262)	1.08 ± 0.062	1.09 ± 0.09	1.06 ± 0.1	1.17 ± 0.19	1.33 ± 0.28	1.47 ± 0.34	1.57 ± 0.29	1.75 ± 0.35
A8MQ02 and related entries (UniProt P55196)	1.15 ± 0.16	0.987 ± 0.079	1 ± 0.038	1.05 ± 0.14	1.18 ± 0.34	1.18 ± 0.21	1.16 ± 0.14	1.13 ± 0.078
UNC119B (UniProt A6NIH7)	1.02 ± 0.042	1.02 ± 0.072	0.955 ± 0.1	0.932 ± 0.1	0.909 ± 0.086	0.913 ± 0.096	0.93 ± 0.086	0.91 ± 0.11
C9JVP0 and related entries (UniProt Q9UPW0)	1.01 ± 0.026	1.05 ± 0.17	1.14 ± 0.019	1.08 ± 0.13	1.13 ± 0.1	1.05 ± 0.17	1.06 ± 0.1	1.13 ± 0.063
C9J1E1 and related entries (UniProt P53004)	0.96 ± 0.04	1 ± 0.024	0.86 ± 0.029	0.856 ± 0.045	0.842 ± 0.031	0.842 ± 0.03	0.823 ± 0.057	0.796 ± 0.074

Random excerpt: 2 entries already listed
Target	NP40-soluble protein abundance (concentration: 0.1mM)	NP40-soluble protein abundance (concentration: 0.5mM)	NP40-soluble protein abundance (concentration: 1mM)	NP40-soluble protein abundance (concentration: 2mM)	NP40-soluble protein abundance (concentration: 4mM)	NP40-soluble protein abundance (concentration: 6mM)	NP40-soluble protein abundance (concentration: 8mM)	NP40-soluble protein abundance (concentration: 10mM)
B7ZBM3 and related entries (UniProt Q8IVH2)	0.848 ± 0.1	0.821 ± 0.035	0.984 ± 0.18	1.01 ± 0.21	0.941 ± 0.21	1.03 ± 0.17	0.926 ± 0.1	1.09 ± 0.12
C9JCC6 and related entries (UniProt Q14919)	0.808 ± 0.16	0.704 ± 0.098	1.03 ± 0.18	0.98 ± 0.089	0.929 ± 0.1	0.915 ± 0.12	0.817 ± 0.18	1.06 ± 0.26
